From article PMC4140647
Results are given in words; binding and its absence hold for the method and conditions named. In cells and extracts the contact can be indirect. A yes stands for co-enrichment or nearness to the bait. Other partners may have been found. Where a sequence is shown, tags or fusion partners need not be part of it.

Sequences of proteins named here, by UniProt entry; tags and fusion partners are left off. A change or cut given only in a name is not applied to a line headed by its entry.
UniProt Q9M0V4: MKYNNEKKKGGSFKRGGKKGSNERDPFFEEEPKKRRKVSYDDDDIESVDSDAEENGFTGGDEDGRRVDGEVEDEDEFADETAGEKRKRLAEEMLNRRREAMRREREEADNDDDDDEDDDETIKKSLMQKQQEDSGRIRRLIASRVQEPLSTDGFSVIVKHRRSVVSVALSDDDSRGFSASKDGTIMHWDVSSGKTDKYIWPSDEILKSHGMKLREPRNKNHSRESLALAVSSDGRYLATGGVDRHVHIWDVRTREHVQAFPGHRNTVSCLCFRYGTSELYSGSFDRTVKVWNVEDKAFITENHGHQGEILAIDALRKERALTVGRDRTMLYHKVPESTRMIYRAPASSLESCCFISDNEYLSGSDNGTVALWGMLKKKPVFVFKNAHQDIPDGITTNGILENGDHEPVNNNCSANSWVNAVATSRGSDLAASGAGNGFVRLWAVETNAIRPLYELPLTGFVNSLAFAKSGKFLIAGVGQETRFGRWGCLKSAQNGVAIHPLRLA
UniProt Q9M1J8: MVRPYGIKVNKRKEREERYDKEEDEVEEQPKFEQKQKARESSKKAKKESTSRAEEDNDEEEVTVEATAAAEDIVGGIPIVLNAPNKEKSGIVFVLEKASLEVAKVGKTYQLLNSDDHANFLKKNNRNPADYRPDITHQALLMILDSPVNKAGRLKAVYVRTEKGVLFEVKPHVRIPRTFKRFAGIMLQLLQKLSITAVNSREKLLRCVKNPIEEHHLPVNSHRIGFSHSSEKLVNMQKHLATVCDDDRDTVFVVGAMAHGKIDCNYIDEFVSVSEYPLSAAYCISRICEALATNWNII
UniProt Q9S826: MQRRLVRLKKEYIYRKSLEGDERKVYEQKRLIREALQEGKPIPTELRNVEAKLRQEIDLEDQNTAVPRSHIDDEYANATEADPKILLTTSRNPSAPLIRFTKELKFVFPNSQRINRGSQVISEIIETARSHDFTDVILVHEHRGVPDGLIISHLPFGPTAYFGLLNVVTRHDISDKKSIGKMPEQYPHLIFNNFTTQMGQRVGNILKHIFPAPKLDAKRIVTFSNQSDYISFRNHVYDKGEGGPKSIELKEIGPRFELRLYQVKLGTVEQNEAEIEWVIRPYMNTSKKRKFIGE
UniProt Q9LPP3: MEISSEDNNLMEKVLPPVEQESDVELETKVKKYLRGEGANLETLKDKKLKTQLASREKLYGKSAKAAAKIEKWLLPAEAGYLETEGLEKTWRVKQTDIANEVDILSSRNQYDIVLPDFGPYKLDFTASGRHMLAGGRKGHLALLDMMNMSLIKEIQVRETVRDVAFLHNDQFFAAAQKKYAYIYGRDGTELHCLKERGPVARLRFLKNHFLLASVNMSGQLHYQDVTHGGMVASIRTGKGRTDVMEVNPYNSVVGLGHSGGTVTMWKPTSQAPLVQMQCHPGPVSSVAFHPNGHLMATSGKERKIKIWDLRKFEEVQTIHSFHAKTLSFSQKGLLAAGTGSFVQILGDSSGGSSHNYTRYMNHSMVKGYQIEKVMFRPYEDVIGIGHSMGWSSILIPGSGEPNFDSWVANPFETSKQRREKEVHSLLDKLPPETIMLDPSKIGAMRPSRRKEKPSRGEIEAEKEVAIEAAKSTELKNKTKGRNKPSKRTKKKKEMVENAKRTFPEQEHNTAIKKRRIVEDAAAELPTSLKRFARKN
UniProt F4KCY1: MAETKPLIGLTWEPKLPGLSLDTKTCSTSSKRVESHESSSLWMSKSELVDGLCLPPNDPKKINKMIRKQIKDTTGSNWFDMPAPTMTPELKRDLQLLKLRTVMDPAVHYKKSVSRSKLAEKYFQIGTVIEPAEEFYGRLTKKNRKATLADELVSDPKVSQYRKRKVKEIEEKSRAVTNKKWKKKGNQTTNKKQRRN
UniProt Q9SI58: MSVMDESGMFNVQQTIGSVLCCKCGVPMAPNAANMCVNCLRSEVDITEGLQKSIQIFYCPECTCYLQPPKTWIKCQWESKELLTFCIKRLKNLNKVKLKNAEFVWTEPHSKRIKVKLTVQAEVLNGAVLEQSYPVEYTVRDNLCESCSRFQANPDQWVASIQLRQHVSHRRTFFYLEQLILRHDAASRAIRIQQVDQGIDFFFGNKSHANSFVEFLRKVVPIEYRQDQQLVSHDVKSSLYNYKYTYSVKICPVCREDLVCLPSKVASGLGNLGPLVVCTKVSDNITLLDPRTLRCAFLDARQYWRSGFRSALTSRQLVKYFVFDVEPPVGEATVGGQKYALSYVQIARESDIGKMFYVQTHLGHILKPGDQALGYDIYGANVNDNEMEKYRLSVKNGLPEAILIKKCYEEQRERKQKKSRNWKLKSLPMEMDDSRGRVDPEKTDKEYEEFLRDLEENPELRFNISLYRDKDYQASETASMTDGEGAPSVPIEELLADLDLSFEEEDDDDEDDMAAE
UniProt Q9C8Z4: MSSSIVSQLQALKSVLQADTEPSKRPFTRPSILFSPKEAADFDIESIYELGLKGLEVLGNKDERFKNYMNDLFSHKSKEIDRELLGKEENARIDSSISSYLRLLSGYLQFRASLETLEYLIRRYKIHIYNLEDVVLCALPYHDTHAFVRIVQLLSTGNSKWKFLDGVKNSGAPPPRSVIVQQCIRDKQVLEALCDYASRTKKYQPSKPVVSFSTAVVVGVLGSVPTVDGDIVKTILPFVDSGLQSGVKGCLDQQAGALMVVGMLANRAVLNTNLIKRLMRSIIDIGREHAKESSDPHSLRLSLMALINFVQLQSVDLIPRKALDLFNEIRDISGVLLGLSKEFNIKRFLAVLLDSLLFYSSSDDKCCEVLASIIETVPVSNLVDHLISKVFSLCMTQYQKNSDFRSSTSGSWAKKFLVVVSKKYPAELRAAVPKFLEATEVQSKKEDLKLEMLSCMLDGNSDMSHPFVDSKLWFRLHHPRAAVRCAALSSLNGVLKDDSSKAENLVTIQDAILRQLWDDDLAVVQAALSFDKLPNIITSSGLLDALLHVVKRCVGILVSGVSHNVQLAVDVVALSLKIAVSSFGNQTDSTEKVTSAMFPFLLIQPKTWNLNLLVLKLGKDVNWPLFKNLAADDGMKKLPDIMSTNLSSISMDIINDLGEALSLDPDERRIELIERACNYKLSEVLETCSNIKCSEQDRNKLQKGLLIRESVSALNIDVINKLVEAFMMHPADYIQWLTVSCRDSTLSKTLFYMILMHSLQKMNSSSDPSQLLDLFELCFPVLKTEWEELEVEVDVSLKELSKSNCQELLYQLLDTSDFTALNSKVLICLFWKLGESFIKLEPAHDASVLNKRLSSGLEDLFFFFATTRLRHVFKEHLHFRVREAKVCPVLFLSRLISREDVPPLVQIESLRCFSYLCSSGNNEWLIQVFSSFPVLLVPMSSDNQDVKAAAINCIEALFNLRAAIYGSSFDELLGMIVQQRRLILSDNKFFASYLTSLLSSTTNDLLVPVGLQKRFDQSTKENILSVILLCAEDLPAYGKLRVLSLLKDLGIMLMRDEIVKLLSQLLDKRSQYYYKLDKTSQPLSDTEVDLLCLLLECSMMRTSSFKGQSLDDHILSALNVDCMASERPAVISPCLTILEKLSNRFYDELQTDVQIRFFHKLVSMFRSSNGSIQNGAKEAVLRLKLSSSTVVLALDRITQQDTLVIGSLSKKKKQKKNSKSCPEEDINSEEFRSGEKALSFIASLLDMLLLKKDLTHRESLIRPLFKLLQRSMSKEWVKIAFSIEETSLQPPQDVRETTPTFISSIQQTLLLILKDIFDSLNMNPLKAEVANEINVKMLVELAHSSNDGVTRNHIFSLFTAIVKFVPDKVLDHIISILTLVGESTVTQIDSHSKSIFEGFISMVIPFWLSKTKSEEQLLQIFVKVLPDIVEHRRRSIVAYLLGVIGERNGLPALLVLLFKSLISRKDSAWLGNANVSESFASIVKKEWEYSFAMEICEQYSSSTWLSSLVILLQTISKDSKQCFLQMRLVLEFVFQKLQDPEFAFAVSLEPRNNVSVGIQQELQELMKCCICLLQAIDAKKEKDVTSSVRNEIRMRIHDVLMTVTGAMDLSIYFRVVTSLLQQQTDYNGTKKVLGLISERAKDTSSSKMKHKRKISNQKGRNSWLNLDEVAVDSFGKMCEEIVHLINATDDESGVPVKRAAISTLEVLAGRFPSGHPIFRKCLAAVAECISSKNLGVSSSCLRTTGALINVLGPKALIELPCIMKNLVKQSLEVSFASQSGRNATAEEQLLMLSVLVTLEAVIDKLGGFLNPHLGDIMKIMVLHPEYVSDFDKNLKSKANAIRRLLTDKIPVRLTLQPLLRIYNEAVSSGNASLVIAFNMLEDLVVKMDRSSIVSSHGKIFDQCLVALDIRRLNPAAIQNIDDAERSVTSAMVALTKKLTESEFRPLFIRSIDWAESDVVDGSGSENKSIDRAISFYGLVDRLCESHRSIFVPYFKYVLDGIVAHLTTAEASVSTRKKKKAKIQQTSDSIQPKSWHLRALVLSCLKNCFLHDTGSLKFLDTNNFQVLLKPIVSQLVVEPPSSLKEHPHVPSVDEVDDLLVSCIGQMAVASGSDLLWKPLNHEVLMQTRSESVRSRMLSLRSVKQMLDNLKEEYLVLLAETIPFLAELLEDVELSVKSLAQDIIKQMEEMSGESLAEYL
UniProt F4JL99: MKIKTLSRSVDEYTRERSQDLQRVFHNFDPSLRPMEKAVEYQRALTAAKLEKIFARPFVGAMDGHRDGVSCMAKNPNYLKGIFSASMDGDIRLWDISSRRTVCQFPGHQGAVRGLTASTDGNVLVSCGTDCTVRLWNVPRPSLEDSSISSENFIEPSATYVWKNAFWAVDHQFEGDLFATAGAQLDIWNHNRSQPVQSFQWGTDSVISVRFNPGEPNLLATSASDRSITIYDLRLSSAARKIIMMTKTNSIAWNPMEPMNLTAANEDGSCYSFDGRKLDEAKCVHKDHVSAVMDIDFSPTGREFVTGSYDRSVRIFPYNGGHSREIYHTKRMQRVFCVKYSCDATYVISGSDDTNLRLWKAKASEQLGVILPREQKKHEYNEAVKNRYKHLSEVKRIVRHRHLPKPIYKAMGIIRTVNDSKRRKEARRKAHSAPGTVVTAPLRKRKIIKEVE

T1: AtMTR4-GFP (Arabidopsis thaliana) (UniProt Q9XIF2)
T1 sequence: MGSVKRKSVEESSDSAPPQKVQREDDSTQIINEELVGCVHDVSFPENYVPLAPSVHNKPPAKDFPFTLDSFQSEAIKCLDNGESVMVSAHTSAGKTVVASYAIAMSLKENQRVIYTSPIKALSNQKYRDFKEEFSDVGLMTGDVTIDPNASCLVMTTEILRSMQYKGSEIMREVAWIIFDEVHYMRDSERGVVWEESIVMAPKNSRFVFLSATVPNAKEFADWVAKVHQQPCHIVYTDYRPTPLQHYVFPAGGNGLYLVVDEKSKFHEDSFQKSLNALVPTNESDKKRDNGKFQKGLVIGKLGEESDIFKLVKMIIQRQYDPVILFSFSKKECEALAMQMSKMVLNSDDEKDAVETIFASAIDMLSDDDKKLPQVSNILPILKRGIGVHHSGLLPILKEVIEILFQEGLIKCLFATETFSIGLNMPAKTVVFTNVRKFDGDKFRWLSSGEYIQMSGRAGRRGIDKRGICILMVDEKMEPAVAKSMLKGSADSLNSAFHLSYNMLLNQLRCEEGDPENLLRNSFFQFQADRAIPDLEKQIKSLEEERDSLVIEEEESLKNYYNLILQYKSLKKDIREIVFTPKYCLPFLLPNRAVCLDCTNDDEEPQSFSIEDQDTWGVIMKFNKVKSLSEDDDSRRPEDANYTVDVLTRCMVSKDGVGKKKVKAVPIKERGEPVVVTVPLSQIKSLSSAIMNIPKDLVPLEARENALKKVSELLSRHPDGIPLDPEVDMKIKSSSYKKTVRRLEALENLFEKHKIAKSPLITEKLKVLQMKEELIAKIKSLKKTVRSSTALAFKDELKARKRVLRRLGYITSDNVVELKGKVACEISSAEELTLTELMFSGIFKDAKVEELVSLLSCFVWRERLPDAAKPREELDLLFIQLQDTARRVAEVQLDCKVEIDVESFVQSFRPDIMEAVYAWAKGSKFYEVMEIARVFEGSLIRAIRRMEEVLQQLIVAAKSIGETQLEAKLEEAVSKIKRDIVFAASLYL


target: T1, AtMTR4-GFP (Arabidopsis thaliana); assay: affinity purification with mass spectrometry; AtMTR4-GFP (own promoter, mtr4 background) extracted from flowers, held on anti-GFP magnetic microparticles (MACS), SDS omitted from washing buffers; LC-MS/MS; triplicates crossed, proteins of mock IPs excluded

| Molecule | binding |
| --- | --- |
| YAOZHE (from UniProt Q9M0V4) | binds |
| nucleolar essential protein-related, EMG1/NEP1 domain (from UniProt Q9M1J8) | binds |
| IMP4, putative U3 small nucleolar ribonucleoprotein (from UniProt Q9S826) | binds |
| Nop14-like protein | binds |
| contains small-subunit processome Utp12 domain (AT1G15420) | binds |
| BMS1 domain protein | binds |
| Transducin/WD40 repeat protein (AT3G10530) (from UniProt Q9LPP3) | binds |
| Fcf2 pre-rRNA processing protein (from UniProt F4KCY1) | binds |
| NONSENSE-MEDIATED MRNA DECAY 3 (from UniProt Q9SI58) | binds |
| TORMOZ EMBRYO … (protein, UniProt Q9LFE2 1-876) MAPHSLKKNYRCSRSLKQFYGGGPFIVSSDGSFIACACGDVINIVDSTDSSVKSTIEGESDTLTALALSPDDKLLFSAGHSRQIRVWDLETLKCIRSWKGHEGPVMGMACHASGGLLATAGADRKVLVWDVDGGFCTHYFRGHKGVVSSILFHPDSNKNILISGSDDATVRVWDLNAKNTEKKCLAIMEKHFSAVTSIALSEDGLTLFSAGRDKVVNLWDLHDYSCKATVATYEVLEAVTTVSSGTPFASFVASLDQKKSKKKESDSQATYFITVGERGVVRIWKSEGSICLYEQKSSDITVSSDDEESKRGFTAAAMLPSDHGLLCVTADQQFFFYSVVENVEETELVLSKRLVGYNEEIADMKFLGDEEQFLAVATNLEEVRVYDVATMSCSYVLAGHKEVVLSLDTCVSSSGNVLIVTGSKDKTVRLWNATSKSCIGVGTGHNGDILAVAFAKKSFSFFVSGSGDRTLKVWSLDGISEDSEEPINLKTRSVVAAHDKDINSVAVARNDSLVCTGSEDRTASIWRLPDLVHVVTLKGHKRRIFSVEFSTVDQCVMTASGDKTVKIWAISDGSCLKTFEGHTSSVLRASFITDGTQFVSCGADGLLKLWNVNTSECIATYDQHEDKVWALAVGKKTEMIATGGGDAVINLWHDSTASDKEDDFRKEEEAILRGQELENAVLDAEYTKAIRLAFELCRPHKVFELFSGLCRKRDSDEQIVKALQGLEKEEFRLLFEYVREWNTKPKLCHIAQFVLYKTFNILPPTEIVQVKGIGELLEGLIPYSQRHFSRIDRFVRSSFLLDYTLGEMSVIDPETVETEYPKDEKKKEKDVIAAMEQDTDELKQETPSRKRKSQKSKGKSNKKRLIAEAQGSVIAV | binds |
| RNA cyclase family protein (protein, UniProt Q9C578 1-375) MVMMKKMKGSQSFRQRLLLSTLSSTPISIDEIRADETIPGLRPHEVNLLRLLEIVTDDAVVDINETGTRLKYKPGTIVGGKNLVHSCSLSRSIGYYLEPLLLLGLFGKKPLSIRLKGITNDPRDASVDTFRSTTLNIIKRFGVPAEDLELKIEARGVAPNGGGEVLLTVPNIKTLSAVHWVEEGMVKKIRGTTFSTRVTSDFEHSMRFAARGIFNNLLPDVHIFQDHRAGAQAGKSPGYGISLAAETTTGCFISADTTVSCERPDETGELDVEKKERSPAEDTGVEVASWLLQEIEKGGVVDSTHQGLLFLLCALSEQDVSKVRVGTLSPYAVETLRNIKEFLGVKFAIKPDPLTGTVILKCTGSGLINLSRKLS | binds |

Next, values leading:

| binding | Molecule |
| --- | --- |
| binds | U3 small nucleolar RNA-associated protein 10 domain (from UniProt Q9C8Z4 1-2197) |
| binds | WD-40 repeat protein (AT4G28450) (from UniProt F4JL99) |
| binds | Periodic tryptophan protein 2 (protein, UniProt Q8VYZ5 1-900) MEFRFENLLGAPYRGGNAVITKNTQLISPVGNRVSVTDLSKNHSVTLPLETSTNICRLASSPDGTFLLAVDEQNRCLFINLPRRVVLHRITFKDKVGALKFSPNGKFIAVGIGKLVEIWRSPGFRRAVLPFERVRTFANSDDKVVSLEWSLDSDYLLVGSRDLAARLFCVRKLKGVLNKPFLFLGHRDSVVGCFFGVDKMTNKVNRAFTIARDGYIFSWGYTEKDVKMDESEDGHSEPPSPVTPDRADEVMVENGGGVGTELKKRKEYDGKGLESDEEGDDDDEEYMHRGKWVLLRKDGCNQASAKVTACDYHQGLDMVVVGFSNGVFGLYQMPDFICIHLLSISRQKLTTAVFNERGNWLTFGCAKLGQLLVWDWRTETYILKQQGHYFDVNCVTYSPDSQLLATGADDNKVKVWNVMSGTCFITFTEHTNAVTALHFMADNHSLLSASLDGTVRAWDFKRYKNYKTYTTPTPRQFVSLTADPSGDVVCAGTLDSFEIFVWSKKTGQIKDILSGHEAPVHGLMFSPLTQLLASSSWDYTVRLWDVFASKGTVETFRHNHDVLTVAFRPDGKQLASSTLDGQINFWDTIEGVLMYTIEGRRDIAGGRVMTDRRSAANSSSGKCFTTLCYSADGGYILAAGTSRYICMYDIADQVLLRRFQISHNLSLDGVLDFLHSKKMTEAGPIDLIDDDNSDEEGGIDKQSRGNLGYDLPGSRPNRGRPIIRTKSLSIAPTGRSFAAATTEGVLIFSIDDTFIFDPTDLDIDVTPEAVEAAIEEDEVSRALALSMRLNEDSLIKKCIFAVAPADIKAVAISVRQKYLERLMEALVDLLENCPHLEFILHWCQEICKAHGSSIQRNYRTLLPALRSLQKAITRAHQDLADMCSSNEYTLRYLCSVPNNH |
| binds | POPCORN (protein, UniProt Q8RXU6 1-815) MLEYRCSSVDWKPSPVVALANSSDDSQVAAAREDGSLEIWLVSPGAVGWHCQLTIHGDPNSRISSLAWCCSPSIGLPSGRLFSSSIDGSISEWDLFDLKQKIVLESIGISIWQMALAPISGFSSDVEGIKNGYLSEKSNDEEEIGSEEDGSDSDEFHEKSEEEIDRILAAACDDGCVRLYRISNLEKLTYYRSLPRVSGRALSVTWSPDAKRIFSGSSDGLIRCWDATSCHEVYRITAGLGGLGSSSEICVWSLLSLRCSVLVSGDSTGTVQFWDSEHGTLLEAHSNHKGDVNTLAAAPSHNRVFSAGADGQVILYKLSGSTNGSQDLKPSSSQKWDYIGYVKAHTHDIRALTVAVPISREDPFPDDILPDKASRKHRKKGKPVDFTYHKWAHLGVPMLISAGDDAKLFAYSIQEFTKFSPHDICPAPQRIPMQMVHNSMFNKTSLLLVQGISTLDILRLNISSDSSGRASTKSLVRVKSRDARKIICSAISNTGSHFAYSDQIGPSLFELKKNEFTKCPWSVSRRRLPELPFAHSMIFSSDCSRLIIAGHDRRIYTIDISSLELVYAFTPSREEHEGEAPTPKEPPITKLFTSSDGQWLAAINCFGDIYVFNLETQRQHWFISRLDGASVTAAGFHPWNNNALVISTSSNQVFAFDVEARQLGKWSLLNTYVLPKRYQEFPGEVLGLSFSPSPNSSSVIVYSSRAKCLIDFGKPVEEDEEYDLPNGNLSKTLEGKLVNLGLKKGKGTNRKRRLDEYQLEGKSNERKNFEILPSNHPVLFVGHLSKNSILVIEKPWMDVVKSLDNQPVDRHIFGT |
| binds | unknown protein, DUF1726 (AT3G57940) (protein, UniProt Q9M2Q4 1-1028) MRKKVDERIRTLIENGVKLRHRSMFVIIGDKSRDQIVNLHHMLSKAVIKCNPSVLWCYKDKLDISSHKQKRSKQLKRLRERGQLDPEKLDAFSRLLDVGRVTHCLYKDSERILGNTFGMCILQDFEALTPNLLARTIETVEGGGLVVLILRSLTSLTSLCTMVMDVHDRFRTESHSEAAGRFNERFLLSLASCKACVVMDDELNILPLSSHIRSITQVPTEKDSEGLSEAERDLKSLKEDLSDDFPVGPLIKKCCTLDQGKAVVTFFDAILDKALRSIVALIASRGRGKSAALGLAVAGAVAAGYSNIYITAPSPDNLKTFFEFVCKGFDALEYKEHLDYDVVKSANPDFKKAVVRINIFKQHRQTIQYIQPHEHEKLSQVELLVIDEAAAIPLPVVKSLLGPYLVFLSSTVSGYEGTGRSLSLKLLQQLDEQSRAPATGLEGSGCLFKKIELTESIRYGSGDPIESWLNGLLCLDVATCLPNPACHPSPSQCDLYYVNRDTLFSYHKDSELFLQRMMALCVSSHYKNSPNDLQLLADAPAHHLFVLLGPVDESQNKIPDILCVIQVCLEGKISENSALQSLRDGHSPYGDQIPWKFCEQFRDTEFPGFSGARIVRIAVHPNAMKMGYGSAAVELLTRYFEGQIAPISEAEDKVDVEHAPIKVTEAAEKVSMLEEQVKPRTNLPPLLVPLHDRRPEKLHYIGVSFGLTLDLFRFWRKHNFAPFYVSQIPSAVTGEHTCMLLKPLKNDELEVNESDELGFFTPFYKDFKIRFSKLLSDKFKKMDYKLAMSVLNPKINFAEVDSSGSSSGGFLKTLNGILSPYDMERLRAYTENLTDFNLVYDICKTLAHQYFEEKLPVSLSYVQASILLCLGLQETDFSSIERQMQLERGQIHSLLLKVARELYKYLNGVAGKEIKSALPRLKERELTAHNVSVDDDIREGAKQVEEQMKKEKIEGLMDSELQQYVIGDKEAEALQHSKISSSGIISVKSTKSENENGFDKSTKKRSSDKRSSSSSKSKSSKKRKSLKE |
